{"source": "PubChem BioAssay AID248", "about": "(DTP/NCI, 2004)", "test_system": "L1210 leukemia ip in BDF1 mice, survival T/C", "experiment": "NCI In Vivo Anticancer Drug Screen. Data for tumor model L1210 Leukemia (intraperitoneal) in B6D2F1 (BDF1) mice", "conditions": "T/C endpoint: mean survival time, higher T/C = longer survival", "note": "The list is a part of this screen's results and no random one: it gathers tests that were run many times, whatever their T/C, doses with no T/C, and many T/C values between a quarter and a half above the control. Further doses and runs are listed elsewhere. T/C is the treated group as % of the vehicle group. Some doses have a count of surviving animals in place of a T/C: the source files T/C as zero there, which appears to mark a toxic dose or a test without result, not a measured value. Some survivor counts are full or nearly so, which does not show that the dose was tolerated: the source hardly ever lists a survival T/C far under the control, and the zero likely stands for such cases as well. Counts of survivors are from the toxicity check (mostly the fifth day) where no day follows; animals may have died later. Schedules are NCI's codes, read here as Q, the interval in days (D) or hours (H), X, the number of doses. Where survival is the endpoint, the PubChem record calls one and a half times the control and up active, and a quarter to a half above the control has no call in these data; cut-offs in other NCI protocols can differ. Some T/C values carry the count of animals alive at the toxicity check (mostly the fifth day); where none is given, no animal had died by that day. Some entries were tested several times; the results are listed from low to high. Some schedule codes hold Z or #, which are not explained here."}
{"smiles": "NC(=S)N/N=C/c1ccc(O)cn1", "values": [{"measurement": "T/C", "setting": "dose: 3.13 mg/kg/injection, schedule: Q03HX024 (ip), vehicle: other", "result": "128 % of control"}, {"measurement": "T/C", "setting": "dose: 3.13 mg/kg/injection, schedule: Q03HX024 (ip), vehicle: saline", "result": "138 % of control"}, {"measurement": "T/C", "setting": "dose: 6.25 mg/kg/injection, schedule: Q03HX024 (ip), vehicle: Klucel (hydroxypropylcellulose) (HPC)", "result": "130 % of control"}, {"measurement": "T/C", "setting": "dose: 6.25 mg/kg/injection, schedule: Q03HX024 (ip), vehicle: other", "result": "140 % of control"}, {"measurement": "T/C", "setting": "dose: 6.25 mg/kg/injection, schedule: Q03HX024 (ip), vehicle: saline", "result": "125 and 144 % of control"}, {"measurement": "T/C", "setting": "dose: 9.5 mg/kg/injection, schedule: Q01DX005 (ip), vehicle: other", "result": "136 % of control"}, {"measurement": "T/C", "setting": "dose: 12.5 mg/kg/injection, schedule: Q03HX024 (ip), vehicle: other", "result": "137 % of control"}, {"measurement": "T/C", "setting": "dose: 17.0 mg/kg/injection, schedule: Q03HX032 (ip), vehicle: saline with Tween-80", "result": "139 % of control"}, {"measurement": "T/C", "setting": "dose: 18.8 mg/kg/injection, schedule: Q01DX009 (ip), vehicle: saline with Tween-80", "result": "137 % of control"}, {"measurement": "T/C", "setting": "dose: 19.0 mg/kg/injection, schedule: Q01DX005 (ip), vehicle: other", "result": "138 % of control"}, {"measurement": "T/C", "setting": "dose: 19.4 mg/kg/injection, schedule: Q03HX024 (ip), vehicle: saline with Tween-80", "result": "145 % of control"}, {"measurement": "T/C", "setting": "dose: 20.0 mg/kg/injection, schedule: Q06HX016 (ip), vehicle: Klucel (hydroxypropylcellulose) (HPC)", "result": "141 % of control"}, {"measurement": "T/C", "setting": "dose: 25.0 mg/kg/injection, schedule: Q03HX024 (ip), vehicle: other", "result": "140 and 145 % of control"}, {"measurement": "T/C", "setting": "dose: 25.0 mg/kg/injection, schedule: Q03HX024 (ip), vehicle: saline", "result": "129 % of control"}, {"measurement": "T/C", "setting": "dose: 30.0 mg/kg/injection, schedule: Q03HX024 (ip), vehicle: saline with Tween-80, evaluated on day 5", "result": "195, 215, 301, 381 % of control"}, {"measurement": "T/C", "setting": "dose: 30.0 mg/kg/injection, schedule: Q03HX024 (ip), vehicle: saline with Tween-80, evaluated on day 60", "result": "215 and 301 % of control"}, {"measurement": "T/C", "setting": "dose: 30.0 mg/kg/injection, schedule: Q03HX032 (ip), vehicle: other", "result": "168, 204, 230, 298 % of control"}, {"measurement": "T/C", "setting": "dose: 30.0 mg/kg/injection, schedule: Q06HX016 (ip), vehicle: Klucel (hydroxypropylcellulose) (HPC)", "result": "141 % of control"}, {"measurement": "T/C", "setting": "dose: 37.5 mg/kg/injection, schedule: Q01DX005 (ip), vehicle: alkali diluted with saline", "result": "141 % of control"}, {"measurement": "T/C", "setting": "dose: 37.5 mg/kg/injection, schedule: Q01DX005 (ip), vehicle: other", "result": "130 and 140 % of control"}, {"measurement": "T/C", "setting": "dose: 37.5 mg/kg/injection, schedule: Q01DX009 (ip), vehicle: saline with Tween-80", "result": "148 % of control"}, {"measurement": "T/C", "setting": "dose: 38.0 mg/kg/injection, schedule: Q01DX005 (ip), vehicle: other", "result": "141 % of control"}, {"measurement": "survivor count", "setting": "dose: 38.0 mg/kg/injection, schedule: Q01DX005 (iv), vehicle: other", "result": "3 of 5"}, {"measurement": "T/C", "setting": "dose: 40.0 mg/kg/injection, schedule: Q01DX009 (ip), vehicle: saline with Tween-80", "result": "142 % of control"}, {"measurement": "T/C", "setting": "dose: 44.0 mg/kg/injection, schedule: Q03HX024 (ip), vehicle: saline with Tween-80, evaluated on day 5", "result": "198, 247, 327, 528 % of control"}, {"measurement": "T/C", "setting": "dose: 44.0 mg/kg/injection, schedule: Q03HX024 (ip), vehicle: saline with Tween-80, evaluated on day 45", "result": "335 % of control"}, {"measurement": "T/C", "setting": "dose: 44.0 mg/kg/injection, schedule: Q03HX024 (ip), vehicle: saline with Tween-80, evaluated on day 60", "result": "247 and 528 % of control"}, {"measurement": "T/C", "setting": "dose: 45.0 mg/kg/injection, schedule: Q03HX032 (ip), vehicle: other", "result": "231, 296 [9 of 10 alive], 305, 354 % of control"}, {"measurement": "T/C", "setting": "dose: 50.0 mg/kg/injection, schedule: Q06HX016 (ip), vehicle: Klucel (hydroxypropylcellulose) (HPC)", "result": "146 % of control"}, {"measurement": "T/C", "setting": "dose: 50.0 mg/kg/injection, schedule: Q## X024 (ip), vehicle: other", "result": "144 % of control [9 of 10 alive]"}, {"measurement": "T/C", "setting": "dose: 60.0 mg/kg/injection, schedule: Q01DX009 (ip), vehicle: saline with Tween-80", "result": "148 % of control"}, {"measurement": "T/C", "setting": "dose: 66.0 mg/kg/injection, schedule: Q03HX024 (ip), vehicle: saline with Tween-80, evaluated on day 5", "result": "97, 133, 135, 197 % of control"}, {"measurement": "T/C", "setting": "dose: 66.0 mg/kg/injection, schedule: Q03HX024 (ip), vehicle: saline with Tween-80, evaluated on day 45", "result": "116 % of control"}, {"measurement": "T/C", "setting": "dose: 66.0 mg/kg/injection, schedule: Q03HX024 (ip), vehicle: saline with Tween-80, evaluated on day 60", "result": "135 and 197 % of control"}, {"measurement": "T/C", "setting": "dose: 75.0 mg/kg/injection, schedule: Q01DX005 (ip), vehicle: alkali diluted with saline", "result": "137 % of control"}, {"measurement": "T/C", "setting": "dose: 75.0 mg/kg/injection, schedule: Q01DX005 (ip), vehicle: other, evaluated on day 30", "result": "145, 156, 164 % of control"}, {"measurement": "T/C", "setting": "dose: 75.0 mg/kg/injection, schedule: Q01DX005 (ip), vehicle: other, evaluated on day 40", "result": "163 % of control"}, {"measurement": "survivor count", "setting": "dose: 75.0 mg/kg/injection, schedule: Q01DX005 (iv), vehicle: other", "result": "1 of 5"}, {"measurement": "T/C", "setting": "dose: 75.0 mg/kg/injection, schedule: Q## X008 (ip), vehicle: other", "result": "137 % of control"}, {"measurement": "T/C", "setting": "dose: 75.0 mg/kg/injection, schedule: Q## X016 (ip), vehicle: other", "result": "147 % of control"}, {"measurement": "survivor count", "setting": "dose: 99.0 mg/kg/injection, schedule: Q03HX024 (ip), vehicle: saline with Tween-80", "result": "10 of 10"}, {"measurement": "T/C", "setting": "dose: 100.0 mg/kg/injection, schedule: Q01DX009 (oral), vehicle: carboxymethylcellulose (CMC)", "result": "134 % of control"}, {"measurement": "survivor count", "setting": "dose: 100.0 mg/kg/injection, schedule: Q03HX024 (ip), vehicle: alkali diluted with saline", "result": "3 of 10"}, {"measurement": "T/C", "setting": "dose: 100.0 mg/kg/injection, schedule: Q03HX024 (ip), vehicle: other", "result": "142 % of control"}, {"measurement": "T/C", "setting": "dose: 100.0 mg/kg/injection, schedule: Q## X003 (ip), vehicle: other", "result": "139 % of control"}, {"measurement": "T/C", "setting": "dose: 120.0 mg/kg/injection, schedule: Q01DX009 (ip), vehicle: saline", "result": "147 % of control"}, {"measurement": "T/C", "setting": "dose: 140.0 mg/kg/injection, schedule: Q01DX009 (ip), vehicle: saline", "result": "136 % of control"}, {"measurement": "T/C", "setting": "dose: 150.0 mg/kg/injection, schedule: Q01DX005 (ip), vehicle: alkali diluted with saline", "result": "138 % of control"}, {"measurement": "T/C", "setting": "dose: 150.0 mg/kg/injection, schedule: Q01DX005 (ip), vehicle: other, evaluated on day 30", "result": "154, 156, 167 % of control"}, {"measurement": "T/C", "setting": "dose: 150.0 mg/kg/injection, schedule: Q01DX005 (ip), vehicle: other, evaluated on day 40", "result": "168 % of control [9 of 10 alive]"}, {"measurement": "survivor count", "setting": "dose: 150.0 mg/kg/injection, schedule: Q01DX005 (iv), vehicle: other", "result": "0 of 5"}, {"measurement": "survivor count", "setting": "dose: 150.0 mg/kg/injection, schedule: Q03HX008 (ip), vehicle: alkali diluted with saline", "result": "5 of 10"}, {"measurement": "survivor count", "setting": "dose: 150.0 mg/kg/injection, schedule: Q03HX016 (ip), vehicle: alkali diluted with saline", "result": "2 of 10"}, {"measurement": "T/C", "setting": "dose: 150.0 mg/kg/injection, schedule: Q03HX024 (ip), vehicle: other", "result": "131 % of control"}, {"measurement": "survivor count", "setting": "dose: 150.0 mg/kg/injection, schedule: Q03HX024 (ip), vehicle: saline", "result": "8 of 8"}, {"measurement": "T/C", "setting": "dose: 200.0 mg/kg/injection, schedule: Q01DX001 (ip), vehicle: saline", "result": "129 % of control"}]}
